PubChem BioAssay AID1159591 – NIAID | 2016

- Purpose: 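Effects of TLR pathway gene knock-down on R848-induced Tnf reporter in macrophages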
- Cells: mouse RAW264.7 G9 macrophage reporter clone (GFP-p65, Tnf promoter-mCherry)
- Knock-down reagent: single siRNA against mouse genes
- Time to read-out: cells assayed 48 to 72 hours after siRNA transfection; R848 for 16 hours before fixing
- Conditions: R848 (TLR7/8 agonist) for 16 hours before fixation; dose not given
- Measured: 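After R848 for 16 hours, nuclear Tnf promoter mCherry signal imaged minus background, scaled per plate by median and MAD into robust z against non-targeting controls, averaged across replicates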
- Scale: mean Tnf reporter z-score: higher = stronger Tnf promoter reporter signal than controls
- Active means: 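Absolute z above 1, 1.5, 2 or 2.5 scores 25 up to 100; no stated active threshold; in practice calls fall at roughly z ≤ -1.5 or z ≥ 1.5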
- Calls: active = reporter clearly up or down; inactive = little reporter change
Shown is an unselected part of 756 reagents tested. In the full data, 130 (17%) were called active. 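Active calls include both lower and higher Tnf reporter signal.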 The numbers tell different reagents against one gene apart. Not stated in the record: the amount of reagent.

target | reagent | mean Tnf reporter z-score | call
Sp1 | 1 | -0.966 | inactive
Sp1 | 2 | -1.43 | inactive
Sp1 | 3 | -2.47 | active
Sp1 | 4 | -1.23 | inactive
Sp1 | 5 | 0.113 | inactive
Sp1 | 6 | -1.83 | active
Cxcl9 | 1 | -0.0618 | inactive
Cxcl9 | 2 | -0.39 | inactive
Cxcl9 | 3 | -0.0112 | inactive
Cxcl9 | 4 | -0.123 | inactive
Cxcl9 | 5 | -0.325 | inactive
Cxcl9 | 6 | 0.195 | inactive
Ikbkg | 1 | 0.028 | inactive
Ikbkg | 2 | -1.24 | inactive
Ikbkg | 3 | -0.33 | inactive
Ikbkg | 4 | -1.84 | active
Ikbkg | 5 | -1.5 | active
Ikbkg | 6 | -0.0167 | inactive

2 of these entries, reformatted.
target	reagent	mean Tnf reporter z-score	call
Sp1	5	0.113	inactive
Sp1	6	-1.83	active

The listing continues:
target | reagent | mean Tnf reporter z-score | call
Map3k8 | 1 | -0.513 | inactive
Map3k8 | 2 | 0.174 | inactive
Map3k8 | 3 | -1.58 | active
Map3k8 | 4 | 0.608 | inactive
Map3k8 | 5 | -0.326 | inactive
Map3k8 | 6 | -0.642 | inactive
Lbp | 1 | 0.702 | inactive
Lbp | 2 | -0.0345 | inactive
Lbp | 3 | -0.568 | inactive
Lbp | 4 | -0.14 | inactive
Lbp | 5 | 0.248 | inactive
Lbp | 6 | 0.84 | inactive
Pik3ca | 1 | -0.142 | inactive
Pik3ca | 2 | 0.877 | inactive
Pik3ca | 3 | -0.186 | inactive
Pik3ca | 4 | -0.965 | inactive
Pik3ca | 5 | -1.77 | active
Pik3ca | 6 | -3.1 | active
Cd180 | 1 | -1.04 | inactive
Cd180 | 2 | 0.259 | inactive
Cd180 | 3 | 0.0807 | inactive
Cd180 | 4 | -0.734 | inactive
Cd180 | 5 | -1.03 | inactive
Cd180 | 6 | -0.186 | inactive
Chuk | 1 | 0.418 | inactive
Chuk | 2 | -2.04 | active
Chuk | 3 | 0.964 | inactive
Chuk | 4 | -1.07 | inactive
Chuk | 5 | -0.17 | inactive
Chuk | 6 | 0.321 | inactive
